{
  "source": "patent US20230270114A1",
  "about": "“FUNGICIDAL COMPOSITIONS” (SYNGENTA CROP PROTECTION AG, priority 2020, published 2023)",
  "system": "Phaeosphaeria nodorum (Septoria nodorum)",
  "assay": "Example A5: Phaeosphaeria nodorum (Septoria nodorum) / wheat / leaf disc preventative (glume blotch)",
  "assay_type": "in vivo",
  "conditions": "200 ppm, inoculated 2 days after application, compared to untreated control",
  "note": "Some results were stated once for a whole list of compounds, not compound by compound.",
  "data": [
    {"smiles": "Cc1sc(N(C(=O)CF)c2cc(F)nc(F)c2)nc1C(=O)NC1CCC1(C)C", "note": "(stereo not shown) [X.27, 2-[(2,6-difluoro-4-pyridyl)-(2-fluoroacetyl)amino]-N-(2,2-dimethylcyclobutyl)-5-methyl-thiazole-4-carboxamide]", "values": [
      {"measurement": "control of Phaeosphaeria nodorum", "value": "at least 80%"}
    ]}
  ]
}
